From PMC8464984, “AimR Adopts Preexisting Dimer Conformations for Specific Target Recognition in Lysis-Lysogeny Decisions of Bacillus Phage phi3T” (Biomolecules, 2021)
These are yes or no findings as the source states them, for the method shown.

Tests used:
[1] = molecular target: phAimR carrying two amino acids substitutions (phAimR^Y341A/E371A) (Bacillus phage phi3T) (UniProt P0DOE3); assay: SAXS; 100 uM protein with 200 uM SAIRGA peptide; room temperature; 25 mM Tris-HCl pH 8.0, 300 mM NaCl; both purified
[2] = molecular target: phAimR carrying two amino acids substitutions (phAimR^Y341A/E371A) (Bacillus phage phi3T) (UniProt P0DOE3); assay: SEC; Superdex 200 Increase 10/300 GL; 8.2 uM protein with 82 uM SAIRGA peptide; 25 mM Tris-HCl pH 8.0, 300 mM NaCl; both purified
[3] = molecular target: phAimR carrying two amino acids substitutions (phAimR^Y341A/E371A) (Bacillus phage phi3T) (UniProt P0DOE3); assay: condition: only with a 10-fold molar excess of SAIRGA peptide; AUC; sedimentation velocity, c(s) model; 0.64 mg/mL protein with 10-fold molar excess of SAIRGA peptide; 18 C, 55,000 r.p.m.; 25 mM Tris-HCl pH 8.0, 300 mM NaCl; both purified
[4] = molecular target: phAimR carrying two amino acids substitutions (phAimR^Y341A/E371A) (Bacillus phage phi3T) (UniProt P0DOE3); assay: condition: only with a 10-fold molar excess of SAIRGA peptide; SEC-MALS; static light scattering; 1.6 mg/mL protein with 10-fold molar excess of SAIRGA; Superdex 200 Increase 10/300 with HELEOS multi-angle light scattering; 25 mM Tris-HCl pH 8.0, 300 mM NaCl; both purified
[5] = molecular target: T1, phAimR^C6S/C74S/C99S/C136S/C223S/C267S/D174C, labelled with Alexa488 and Cy5 (Bacillus phage phi3T) (UniProt P0DOE3); assay: FRET or BRET; smFRET in solution; about 100 pM doubly labelled (Alexa488/Cy5) phAimR, peptide titrated; KD from the population of the enriched FRET state; 25 C, 20 mM Tris-HCl pH 7.5, 100 mM NaCl, 0.005% Tween 20, 1 mM L-ascorbic acid, 1 mM methylviologen; both purified
T1 sequence (chain, Alexa Fluor 488 C5 maleimide or Cy5 maleimide on the cysteine at D174C): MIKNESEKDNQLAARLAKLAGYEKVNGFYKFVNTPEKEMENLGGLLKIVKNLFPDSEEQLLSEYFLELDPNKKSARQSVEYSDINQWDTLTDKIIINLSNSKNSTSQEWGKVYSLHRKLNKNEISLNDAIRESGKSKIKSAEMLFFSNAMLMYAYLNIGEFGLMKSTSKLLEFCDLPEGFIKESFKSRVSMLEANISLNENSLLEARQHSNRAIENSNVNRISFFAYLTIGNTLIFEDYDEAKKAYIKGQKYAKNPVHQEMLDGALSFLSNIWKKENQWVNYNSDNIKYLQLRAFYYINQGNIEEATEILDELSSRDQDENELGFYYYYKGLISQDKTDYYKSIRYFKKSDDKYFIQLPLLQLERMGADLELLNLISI

[6] = molecular target: T2, phAimR^C6S/C74S/C99S/C136S/C223S/C267S/N103C, labelled with Alexa488 and Cy5 (Bacillus phage phi3T) (UniProt P0DOE3); assay: as above
T2 sequence (chain, Alexa Fluor 488 C5 maleimide or Cy5 maleimide on the cysteine at N103C): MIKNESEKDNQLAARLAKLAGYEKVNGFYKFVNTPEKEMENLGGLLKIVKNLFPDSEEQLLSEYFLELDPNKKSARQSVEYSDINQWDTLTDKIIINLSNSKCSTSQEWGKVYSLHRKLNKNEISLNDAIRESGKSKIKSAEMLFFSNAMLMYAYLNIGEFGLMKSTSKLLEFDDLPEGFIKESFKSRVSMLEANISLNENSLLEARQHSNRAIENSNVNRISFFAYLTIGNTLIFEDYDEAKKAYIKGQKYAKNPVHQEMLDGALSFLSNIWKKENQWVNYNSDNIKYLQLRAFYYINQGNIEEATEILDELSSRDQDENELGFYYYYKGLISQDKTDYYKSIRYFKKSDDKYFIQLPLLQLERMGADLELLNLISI

Binder | binding [1] | binding [2] | binding [3] | binding [4] | binding [5] | binding [6]
phAimR carrying two amino acids substitutions (phAimR^Y341A/E371A) (natural protein, Bacillus phage phi3T, AimR of Bacillus phage phi3T (GenBank KY030782.1) with Y341A and E371A; also called phAim^Y341A/E371A; phAimR^Y341/E371A; source: E. coli BL21 (DE3), purified, prepared in the same way as the wild-type protein; not shown: His6, N-terminal, cleaved) MIKNECEKDNQLAARLAKLAGYEKVNGFYKFVNTPEKEMENLGGLLKIVKNLFPDSEEQLLSEYFLELDPNKKCARQSVEYSDINQWDTLTDKIIINLCNSKNSTSQEWGKVYSLHRKLNKNEISLNDAIRESGKCKIKSAEMLFFSNAMLMYAYLNIGEFGLMKSTSKLLEFDDLPEGFIKESFKSRVSMLEANISLNENSLLEARQHSNRAIENSNVNRICFFAYLTIGNTLIFEDYDEAKKAYIKGQKYAKNPVHQEMLDGALCFLSNIWKKENQWVNYNSDNIKYLQLRAFYYINQGNIEEATEILDELSSRDQDENELGFYYYYKGLISQDKTDYAKSIRYFKKSDDKYFIQLPLLQLERMGADLALLNLISI | no binding (condition: with 200 uM SAIRGA peptide) | no binding (condition: with 82 uM SAIRGA peptide) | no binding | no binding | – | –
GMPRGA [SPbeta arbitrium peptide (GMPRGA)] | – | – | – | – | no binding | no binding
